Tested on: human alu-consnesus sequence
Assay: Real-time qPCR (Example 9)
Type: biochemical
Conditions: Hex filter set
Description: PCR was performed on human genomic DNA obtained from 0.16 million human peripheral blood leukocytes by direct lysis in a volume of 1 ml as described by Christopherson et al, PCR-Based Assay To Quantify Human Immunodeficiency Virus Type 1 DNA In Peripheral Blood Mononuclear Cells, 2000, J Clin Microbiol., pp. 630-634, Vol. 38. […] Additionally, a non-template control containing deionised water as sample was used. Two μl per sample were then used for real-time PCR as follows: PCR reactions were run in JumpStart™ ReadyMix™ (Sigma Aldrich, order number p2893), containing salt, buffer, Taq-DNA polymerase and deoxynucleotidetriphosphates in a final volume of 32 μl. PCR primers were added to a final concentration of 1 μM. To obtain optimal performance in real time PCR, the PCR mix was supplemented with additional MgCL2 to a final concentration of 3 mM. The DNA binding dye Nancy-520 was added to a final concentration of 200 nM. PCR primers mf39 (5′-[…]-3′) and mf40 (5′-[…]-3′) were used at a final concentration of 1 μM. […]
Data (FIG. 9A, 9C, 9D) were analyzed using the IQ5 software (version 2.0) or by linear regression analysis (FIG. 9B) using the statistical software GraphPad Prism version 5.01 (GraphPad Software, Inc., La Jolla, Calif.) […]

CN1C(c2ccccc2)=C/C(=C\c2sc3ccccc3[n+]2CCCCO)c2ccccc21 [Compound 9]
observed slope of log10 copy numbers versus ct-values (expected −0.301): −0.29 | efficiency of the PCR (from linear regression): 97%

Reference: patent US20100041045A1, “NUCLEIC ACID FLUORESCENT STAINS” (SIGMA-ALDRICH CO., priority 2007, published 2010)
